Drawing on publication PMC3857245, this text covers binding for one substance.

Amino acid sequences for entries named in this document (tags omitted).
UniProt O88943: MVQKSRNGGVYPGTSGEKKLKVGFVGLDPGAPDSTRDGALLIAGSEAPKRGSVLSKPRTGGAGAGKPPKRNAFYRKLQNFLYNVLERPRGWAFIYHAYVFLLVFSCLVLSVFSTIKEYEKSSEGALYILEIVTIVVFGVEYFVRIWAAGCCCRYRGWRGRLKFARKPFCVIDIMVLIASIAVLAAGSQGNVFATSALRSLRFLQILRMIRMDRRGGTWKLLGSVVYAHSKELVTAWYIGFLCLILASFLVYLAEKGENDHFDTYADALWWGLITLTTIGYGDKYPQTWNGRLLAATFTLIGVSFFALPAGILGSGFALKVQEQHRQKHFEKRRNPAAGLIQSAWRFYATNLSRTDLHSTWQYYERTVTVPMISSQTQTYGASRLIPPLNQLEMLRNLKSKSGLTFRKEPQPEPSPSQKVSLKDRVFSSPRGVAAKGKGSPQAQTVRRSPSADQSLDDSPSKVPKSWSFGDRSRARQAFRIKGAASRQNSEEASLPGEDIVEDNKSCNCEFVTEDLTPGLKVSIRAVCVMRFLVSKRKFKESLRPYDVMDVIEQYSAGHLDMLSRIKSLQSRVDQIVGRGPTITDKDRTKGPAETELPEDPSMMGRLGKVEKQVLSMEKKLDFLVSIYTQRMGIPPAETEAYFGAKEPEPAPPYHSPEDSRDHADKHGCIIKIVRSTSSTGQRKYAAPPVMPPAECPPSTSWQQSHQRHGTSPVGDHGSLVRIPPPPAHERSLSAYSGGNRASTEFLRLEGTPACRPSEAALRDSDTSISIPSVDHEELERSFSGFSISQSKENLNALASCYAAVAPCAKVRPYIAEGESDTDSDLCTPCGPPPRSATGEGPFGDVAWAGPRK
UniProt P24587: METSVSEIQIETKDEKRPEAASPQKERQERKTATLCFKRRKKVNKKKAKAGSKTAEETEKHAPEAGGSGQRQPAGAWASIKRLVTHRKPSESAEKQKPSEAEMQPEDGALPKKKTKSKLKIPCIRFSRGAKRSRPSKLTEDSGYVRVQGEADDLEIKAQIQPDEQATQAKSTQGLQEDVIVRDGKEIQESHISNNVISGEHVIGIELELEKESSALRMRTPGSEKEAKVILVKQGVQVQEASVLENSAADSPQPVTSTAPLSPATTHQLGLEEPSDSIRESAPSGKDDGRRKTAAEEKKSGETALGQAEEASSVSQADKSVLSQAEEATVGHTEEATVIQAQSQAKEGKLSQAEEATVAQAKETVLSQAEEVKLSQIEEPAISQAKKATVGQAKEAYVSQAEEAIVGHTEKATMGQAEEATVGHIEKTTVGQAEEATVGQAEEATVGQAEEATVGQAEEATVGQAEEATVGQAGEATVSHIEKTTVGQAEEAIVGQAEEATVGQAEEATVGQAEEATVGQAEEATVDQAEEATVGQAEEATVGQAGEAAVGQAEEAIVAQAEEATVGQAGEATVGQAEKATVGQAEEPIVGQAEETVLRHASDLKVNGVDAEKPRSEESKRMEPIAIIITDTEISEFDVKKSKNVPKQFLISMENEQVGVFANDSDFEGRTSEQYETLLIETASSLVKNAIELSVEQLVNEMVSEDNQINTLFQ

Results are given in words; binding and its absence hold for the method and conditions named. In cells and extracts the contact can be indirect. Some results given as binding are weak or reduced against the parent protein; the word gives no strength.

This assay has as its target 3xFLAG-tagged rat KCNQ2 (rat) (UniProt O88943). Briefly: co-IP; 1 µg purified AKAP150-His6 added to HEK293A lysate with KCNQ2-FLAG and CaM-V5, then anti-FLAG resin; calcium (–) and calcium (+) buffers; blot with anti-AKAP150; only the binder purified.

On to “AKAP150-His6 (from UniProt P24587 1-714)”, for which the binding entry is “binds”.
